Values quoted from earlier work in patent publication US20200246485A1, “METHOD FOR GENERATING A DIHYDROMYRICETIN (DHM) FORMULATION” (82 LABS INC, priority 2019, published 2020).

What was measured:
[1] = set-up: key: ability to form inclusion complexes, as indicated by a “+”; details: guest substance with γ-CD; cited from earlier work
[2] = set-up: key: ability to form inclusion complexes, as indicated by a “+”; details: guest substance with β-CD; cited from earlier work
[3] = set-up: key: ability to form inclusion complexes, as indicated by a “+”; details: guest substance with α-CD; cited from earlier work

## c1ccc2cc3ccccc3cc2c1 [Anthracene]
[1]
  ability to form inclusion complexes with γ-CD: +

## CCCC(=O)O [Butyric acid]
[2]
  ability to form inclusion complexes with β-CD: +
[3]
  ability to form inclusion complexes with α-CD: +

## C1CCCCC1 [Cyclohexane]
[2]
  ability to form inclusion complexes with β-CD: +
[1]
  ability to form inclusion complexes with γ-CD: +
[3]
  ability to form inclusion complexes with α-CD: +

## c1ccc2ccccc2c1 [Naphthalene]
[2]
  ability to form inclusion complexes with β-CD: +
[1]
  ability to form inclusion complexes with γ-CD: +

## CCC(=O)O [Propionic acid]
[3]
  ability to form inclusion complexes with α-CD: +

## [Xe] [Xenon]
[3]
  ability to form inclusion complexes with α-CD: +
